Experimental data: PubChem BioAssay AID1259308 (NCATS, 2017)

Assay: 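Knock-downs that increase output of a recombinant reporter protein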 (primary screen)
Cells: human HEK293 embryonic kidney cells stably expressing firefly luciferase (HEK-CMV-Luc2-Hygro)
Reagents: single siRNA against human genes, 0.8 pmol siRNA per well
Time to read-out: 72 h
Measurement: 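Luciferase light (ONE-Glo) measured on one replicate plate set and viability (CellTiter-Glo) on the other, scaled to a negative control siRNA, with robust z-scores and luciferase per cell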
Reading the numbers: total luciferase, z-score and total luciferase, % of control: higher = more reporter protein produced; luciferase per cell, z-score: higher = more reporter output per viable cell; viable cells, % of control: higher = more viable cells
Active means: 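An siRNA counts as active if its total luciferase robust z-score exceeds 3; genes with two or more such siRNAs out of three were retested with fresh siRNAs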
Meaning of the calls: active = raised luciferase; inactive = no rise
In all, the deposit lists about 59,000 reagents; below is a part drawn at random. In the full data, about 1,510 (2.6%) are marked active. 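Calls use total luciferase alone and ignore viability, so some active siRNAs may act by altering cell number.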

target gene	PubChem SID	total luciferase, z-score	total luciferase, % of control	luciferase per cell, z-score	viable cells, % of control	Outcome
CEP95	SID160753806	0.956	101	0.961	87.5	inactive
CEP95	SID160753807	3.39	149	2.57	84.7	active
CEP95	SID160753808	-0.711	67.7	-0.577	88.1	inactive
TSPAN5	SID160725345	-0.68	68.4	0.247	71.6	inactive
TSPAN5	SID160725350	0.318	88.2	1.13	73.2	inactive
TSPAN5	SID160725357	-0.949	63	-0.611	82.7	inactive
RPS15AP34	SID160725270	2.41	130	2.24	80.4	inactive
RPS15AP34	SID160766563	-2.31	36	-1.1	53.7	inactive
RPS15AP34	SID160766564	0.567	93.2	0.665	87.4	inactive
FAM78B	SID160732561	-0.857	64.8	-0.419	80.9	inactive
FAM78B	SID160758800	-0.247	77	-0.236	91.5	inactive
FAM78B	SID160758801	-1.5	52.1	0.0655	57.2	inactive
LPP	SID160776710	-0.704	67.9	-0.698	91.1	inactive
LPP	SID160776712	-0.138	79.1	-0.252	94.5	inactive
LPP	SID160776713	-0.358	74.8	0.408	75	inactive
TUT4	SID160735999	0.829	98.4	0.721	90.9	inactive
TUT4	SID160736000	-0.527	71.4	-0.874	100	inactive
TUT4	SID160736001	2.42	130	2.93	67.1	inactive
HDC	SID160774895	-1.01	61.9	-0.512	79.1	inactive
HDC	SID160774896	-1.26	56.8	-1.32	89.9	inactive
HDC	SID160774897	0.624	94.3	-0.0127	106	inactive
TMEM161A	SID160742517	1.84	118	1.26	95	inactive
TMEM161A	SID160742518	-1.36	54.9	-1.55	92.4	inactive
TMEM161A	SID160742519	-1.13	59.4	-0.876	83.5	inactive

8 entries already listed, arranged by “total luciferase, z-score”, highest first:
target gene	PubChem SID	total luciferase, z-score	total luciferase, % of control	luciferase per cell, z-score	viable cells, % of control	Outcome
TUT4	SID160736001	2.42	130	2.93	67.1	inactive
TMEM161A	SID160742517	1.84	118	1.26	95	inactive
TUT4	SID160735999	0.829	98.4	0.721	90.9	inactive
HDC	SID160774897	0.624	94.3	-0.0127	106	inactive
TUT4	SID160736000	-0.527	71.4	-0.874	100	inactive
HDC	SID160774895	-1.01	61.9	-0.512	79.1	inactive
HDC	SID160774896	-1.26	56.8	-1.32	89.9	inactive
TMEM161A	SID160742518	-1.36	54.9	-1.55	92.4	inactive

The results go on:
target gene	PubChem SID	total luciferase, z-score	total luciferase, % of control	luciferase per cell, z-score	viable cells, % of control	Outcome
TCF7	SID160717799	3.94	160	4.33	57.2	active
TCF7	SID160717800	-2.45	33.1	-3	81.4	inactive
TCF7	SID160717801	-0.718	67.6	-1.04	99.3	inactive
THA1P	SID160725277	-2.85	25.2	-0.863	35.4	inactive
THA1P	SID160731186	0.479	91.4	0.315	94	inactive
THA1P	SID160766575	-1.15	59.1	-1.17	89.9	inactive
CNPY3	SID160729066	-0.712	67.7	-0.762	92.5	inactive
CNPY3	SID160729067	-1.06	60.8	-0.884	85.8	inactive
CNPY3	SID160732289	1.18	105	1	90.4	inactive
DIAPH1	SID160754257	-0.0956	80	-0.112	92	inactive
DIAPH1	SID160754267	-1.41	53.8	-0.256	64.3	inactive
DIAPH1	SID160754278	-0.00441	81.8	-0.165	95.5	inactive
SYPL1	SID160717603	0.00458	82	-0.117	94.5	inactive
SYPL1	SID160717604	-0.479	72.4	-1.04	106	inactive
SYPL1	SID160717605	-0.105	79.8	-0.677	107	inactive
IGSF9B	SID160733991	0.439	90.6	0.8	82	inactive
IGSF9B	SID160734766	-0.136	79.2	-0.782	109	inactive
IGSF9B	SID160734777	-0.245	77	0.0918	84	inactive
IGSF9B	SID160734788	2.36	129	2.37	77.1	inactive
IGSF9B	SID160769918	-1.86	44.9	-1.33	71.2	inactive
IGSF9B	SID160769919	0.113	84.1	-0.702	113	inactive
STRC	SID160759852	-1.64	49.3	1.26	39.5	inactive
STRC	SID160759853	3.32	148	3.05	74	active
STRC	SID160759854	-0.262	76.7	-0.791	106	inactive
SPATA16	SID160751511	0.285	87.6	0.58	84	inactive
SPATA16	SID160751512	-0.521	71.5	-0.502	91.2	inactive
SPATA16	SID160751513	0.0179	82.2	-0.418	103	inactive
AMHR2	SID160717150	0.583	93.5	0.201	99.1	inactive
AMHR2	SID160717159	0.345	88.8	-0.148	103	inactive
AMHR2	SID160717170	-1.08	60.3	-1.47	99.4	inactive
IQSEC1	SID160723446	0.411	90.1	0.347	91.9	inactive
IQSEC1	SID160723447	0.146	84.8	0.529	82.4	inactive
IQSEC1	SID160723448	-1.38	54.5	-0.0772	62.1	inactive
